Positions of bridges follow the written chain, without caps; N, C: chain ends. Residues, ends and D or L forms follow the SMILES beside them. Chains are numbered I, II in the order given. No end group written: not given here.
Experiments:
[1] = Quenching of tryptophan by acrylamide (Stern-Volmer); conditions: acrylamide quenching of Trp, peptide 4 μM, excitation 295 nm, emission 340 nm; for Stern-Volmer quenching constant Ksv in DOPG/Chol: in DOPG/Chol 60/40 LUVs; for Stern-Volmer quenching constant Ksv in buffer: no LUVs
[2] = Membrane fluidity, Laurdan generalized polarization (GP); conditions: Laurdan in DOPG LUVs with peptide, 25 °C, P/L molar ratio 0.05, 10 min after addition, 5 mM HEPES 100 mM NaCl pH 7.4; no peptide GP 0.13
[3] = as above; conditions: Laurdan in DOPC/Chol 60/40 LUVs with peptide, 25 °C, P/L molar ratio 0.05, 10 min after addition, 5 mM HEPES 100 mM NaCl pH 7.4; no peptide GP 0.27
[4] = as above; conditions: Laurdan in DOPG/Chol 60/40 LUVs with peptide, 25 °C, P/L molar ratio 0.05, 10 min after addition, 5 mM HEPES 100 mM NaCl pH 7.4; no peptide GP 0.36
[5] = GUV image analysis, shape descriptors (light sheet fluorescence microscopy); conditions: GUVs DOPG/Chol 60/40, triplicate; for Mean circularity of GUVs after peptide treatment: Circularity = 4π×Area/Perimeter^2, GUVs alone 0.12, at least 2500 GUV per sample; for Mean roundness of GUVs after peptide treatment: Roundness = 4×Area/π×Major axis^2, GUVs alone 0.66
Source text: GUVs appear dark against the background as a consequence of the difference in refractive index of GUVs contents (sucrose solution) and the surrounding medium (glucose solution). A white halo appears around the vesicle. Formation of pores and of protuberances may be thus evidenced. GUVs appear under differential interference contrast (DIC) round shaped with an average smaller area compared to GUVs treated with gH625 (Table 5, Figure 8). […] The addition of gH625-H7 to GUVs produced a similar effect of gH625 with the only difference that it induces an enhancement of the GUVs fusion tendency (Figure 8). gH625 and gH625-H7 enhance the mean area and perimeter of GUVs (Figure 9A,C). […] Main shape descriptor analysis confirms that the addition of gH625 or gH625-H7 induces an increase in area and perimeter also indicating a decrease in circularity and roundness parameters (Table 5).
LUVs and SUVs for fluorescence,circular dichroism and surface plasmon resonance, consisting of DOPG, DOPG/Chol (60/40 mol/mol), DOPC/Chol (60/40 mol/mol), and when necessary containing Rho-PE and NBD-PE, or ANTS and DPX, were prepared in 5 mM HEPES, 100 mM NaCl, pH 7.4[66]. Aliquots containing the necessary amount of lipids were dried from a chloroform solution with a nitrogen gas stream and lyophilized overnight to produce dry lipid films which were then resuspended in buffer and vortexed for 1 h; the lipid suspension was freeze-thawed 6 times to obtain multilamellar vesicles (MLV). […] Lipid concentrations of liposome suspensions were determined by phosphate analysis. […]
GUVs were used upon one day from preparation. Ten microliters of fluorescent GUVs were analyzed (before and after the addition of gH625 or gH625-H7) under a custom made light sheet fluorescent microscope equipped with five laser lines (λ = 375 nm Coherent Cube, λ = 405 nm Coherent Cube, λ = 473 nm Laserworld Blue-200, λ = 532 nm Coherent Compass 215 M-10 DPSS laser and λ = 632.8 nm Thorlabs HRR005S Helium-Neon laser), a motorized microscope MS-2000 XY stage with LX-4000 controller (Applied Scientific Instrumentation), a Focus Drive motorized Z stage (Tofra Inc.) and Nano-F200S nanopositioner controlled by Nanodrive® controller (Mad City Labs); all devices were managed by MicroManager software. […] The emerging fluorescence was detected by the Orca flash 2.8 sCMOS camera (Hamamatsu) driven by Dalsa Xcelera (Teledyne DALSA) PCIe card mounted on AMD FX-8 core 3.5 GHz, 32 Gb RAM pc running Windows 8.1 (Microsoft). […] GUV parameters were calculated by the Analyze particles ImageJ plugin; a minimum size of 5 μm^2 and circularity of at least […] Circularity=4π×[Area]/[Perimeter]^2 with a value of 1.0 indicating a perfect circle) was considered. […]

| Compound | Stern-Volmer quenching constant Ksv in DOPG/Chol [1] [M⁻¹] | Stern-Volmer quenching constant Ksv in buffer [1] [M⁻¹] | generalized polarization (GP) value [2] | generalized polarization (GP) value [3] | generalized polarization (GP) value [4] | Mean circularity of GUVs after peptide treatment [5] | Mean roundness of GUVs after peptide treatment [5] |
| --- | --- | --- | --- | --- | --- | --- | --- |
| CC[C@H](C)[C@H](NC(=O)[C@H](CC(C)C)NC(=O)[C@H](C)NC(=O)[C@H](CC(N)=O)NC(=O)[C@H](Cc1ccc(O)cc1)NC(=O)[C@H](Cc1c[nH]cn1)NC(=O)[C@H](C)NC(=O)[C@H](Cc1c[nH]c2ccccc12)NC(=O)[C@H](CCCNC(=N)N)NC(=O)[C@@H](NC(=O)[C@H](CC(C)C)NC(=O)[C@@H](NC(=O)[C@H](CO)NC(=O)[C@H](C)NC(=O)[C@H](CC(C)C)NC(=O)CNC(=O)[C@@H](N)Cc1c[nH]cn1)[C@@H](C)O)[C@@H](C)O)C(=O)N[C@@H](CCCNC(=N)N)C(=O)N[C@@H](C)C(=O)N[C@@H](Cc1ccccc1)C(=O)NCC(=O)NCC(=O)NCC(=O)N[C@@H](CCCCN)C(=O)N[C@@H](CCCCN)C(=O)N[C@@H](CCCCN)C(=O)N[C@@H](CCCCN)C(N)=O [gH625-G7] (H-HGLASTLTRWAHYNALIRAFGGGKKKK-NH2) | 4.74 ± 0.12 | 12.21 ± 0.16 | 0.11 | 0.29 | 0.40 | – | – |
| CC[C@H](C)[C@H](NC(=O)[C@H](CC(C)C)NC(=O)[C@H](C)NC(=O)[C@H](CC(N)=O)NC(=O)[C@H](Cc1ccc(O)cc1)NC(=O)[C@H](Cc1c[nH]cn1)NC(=O)[C@H](C)NC(=O)[C@H](Cc1c[nH]c2ccccc12)NC(=O)[C@H](CCCNC(=N)N)NC(=O)[C@@H](NC(=O)[C@H](CC(C)C)NC(=O)[C@@H](NC(=O)[C@H](CO)NC(=O)[C@H](C)NC(=O)[C@H](CC(C)C)NC(=O)CNC(=O)[C@@H](N)Cc1c[nH]cn1)[C@@H](C)O)[C@@H](C)O)C(=O)N[C@@H](CCCNC(=N)N)C(=O)N[C@@H](C)C(=O)N[C@@H](Cc1ccccc1)C(N)=O [gH625] (H-HGLASTLTRWAHYNALIRAF-NH2) | 8.07 ± 0.38 | 10.81 ± 0.18 | 0.10 | 0.28 | 0.36 | 0.11 | 0.59 |
| I: HGLASTLTRWAHYNALIRAFGCGKKKK-NH2 / II: HGLASTLTRWAHYNALIRAFGCGKKKK-NH2 (disulfide I:22-II:22) [gH625-H7] | 3.66 ± 0.09 | 13.32 ± 0.38 | 0.18 | 0.34 | 0.48 | 0.08 | 0.54 |

Source: publication PMC5572722, “Dimerization in tailoring uptake efficacy of the HSV-1 derived membranotropic peptide gH625” (Scientific Reports, 2017)
